In doi:10.1101/2021.11.30.470516:
Results are given in words; binding and its absence hold for the method and conditions named. Binding seen in cells or lysates may run through a third protein. Some entries that bind do so weakly or less than the wild type.

Amino acid sequences for entries named in this document (tags omitted).
UniProt P29590: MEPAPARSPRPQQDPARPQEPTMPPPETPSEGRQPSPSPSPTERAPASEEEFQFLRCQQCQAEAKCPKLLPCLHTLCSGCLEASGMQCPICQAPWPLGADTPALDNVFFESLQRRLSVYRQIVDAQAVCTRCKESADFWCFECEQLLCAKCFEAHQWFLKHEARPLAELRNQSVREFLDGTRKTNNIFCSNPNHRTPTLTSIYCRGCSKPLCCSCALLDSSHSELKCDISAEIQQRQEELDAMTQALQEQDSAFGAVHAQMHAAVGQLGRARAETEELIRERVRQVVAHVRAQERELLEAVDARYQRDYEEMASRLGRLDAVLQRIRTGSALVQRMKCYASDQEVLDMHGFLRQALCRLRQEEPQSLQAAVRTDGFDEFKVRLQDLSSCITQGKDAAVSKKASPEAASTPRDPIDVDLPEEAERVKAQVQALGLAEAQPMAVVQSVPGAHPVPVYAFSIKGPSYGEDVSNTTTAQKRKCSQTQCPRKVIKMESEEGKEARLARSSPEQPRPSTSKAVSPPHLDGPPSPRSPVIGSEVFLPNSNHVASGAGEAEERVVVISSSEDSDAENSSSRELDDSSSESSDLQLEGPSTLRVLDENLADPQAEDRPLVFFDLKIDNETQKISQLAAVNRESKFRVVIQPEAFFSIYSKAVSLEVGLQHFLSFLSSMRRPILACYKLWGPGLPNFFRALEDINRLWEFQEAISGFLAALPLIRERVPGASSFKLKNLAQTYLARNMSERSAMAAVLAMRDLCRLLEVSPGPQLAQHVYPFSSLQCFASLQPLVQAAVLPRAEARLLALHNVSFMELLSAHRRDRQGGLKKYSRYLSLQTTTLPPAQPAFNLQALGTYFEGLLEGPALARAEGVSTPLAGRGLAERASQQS
UniProt P54198: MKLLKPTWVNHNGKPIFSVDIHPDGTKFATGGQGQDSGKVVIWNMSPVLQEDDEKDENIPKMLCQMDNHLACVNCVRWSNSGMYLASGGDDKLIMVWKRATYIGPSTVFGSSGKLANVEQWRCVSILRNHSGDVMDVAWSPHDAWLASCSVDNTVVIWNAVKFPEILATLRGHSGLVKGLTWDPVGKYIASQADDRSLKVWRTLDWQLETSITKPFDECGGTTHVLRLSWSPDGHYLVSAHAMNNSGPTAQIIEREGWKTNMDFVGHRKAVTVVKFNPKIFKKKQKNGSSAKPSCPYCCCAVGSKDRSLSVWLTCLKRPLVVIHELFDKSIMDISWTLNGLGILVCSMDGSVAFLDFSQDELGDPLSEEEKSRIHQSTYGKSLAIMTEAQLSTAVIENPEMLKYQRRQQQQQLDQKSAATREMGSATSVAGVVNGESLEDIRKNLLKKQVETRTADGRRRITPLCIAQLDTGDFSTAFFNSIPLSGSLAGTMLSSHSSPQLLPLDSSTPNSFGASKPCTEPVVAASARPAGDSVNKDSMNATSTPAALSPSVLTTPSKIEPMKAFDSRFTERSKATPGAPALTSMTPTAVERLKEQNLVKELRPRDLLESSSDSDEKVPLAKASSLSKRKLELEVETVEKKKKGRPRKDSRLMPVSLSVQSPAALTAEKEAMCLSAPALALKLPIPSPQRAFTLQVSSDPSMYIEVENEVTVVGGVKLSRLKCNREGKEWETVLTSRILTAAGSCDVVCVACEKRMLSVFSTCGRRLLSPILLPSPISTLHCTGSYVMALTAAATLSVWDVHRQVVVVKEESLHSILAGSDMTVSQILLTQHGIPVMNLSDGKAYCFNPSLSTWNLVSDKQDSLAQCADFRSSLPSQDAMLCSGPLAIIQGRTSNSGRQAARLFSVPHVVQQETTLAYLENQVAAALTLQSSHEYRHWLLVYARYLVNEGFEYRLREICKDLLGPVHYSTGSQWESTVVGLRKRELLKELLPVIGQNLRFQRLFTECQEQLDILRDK

Molecular target: Promyelocytic Leukemia protein (PML) (human (endogenous in BJ)) (UniProt P29590)
Assay: proximity ligation

Substance: Histone cell cycle regulator A (HIRA) (from UniProt P54198 1-1017)
- binding: binds
